These are yes or no findings as the source states them, for the method shown. Binding seen in cells or lysates may run through a third protein. Some binding calls cover weakened binding; strength is not graded here.
Biological target: T1, Gasdermin E (endogenous, kidney cortical collecting duct CCD cells) (mouse (endogenous in CCD)) (UniProt Q9Z2D3)
T1 sequence: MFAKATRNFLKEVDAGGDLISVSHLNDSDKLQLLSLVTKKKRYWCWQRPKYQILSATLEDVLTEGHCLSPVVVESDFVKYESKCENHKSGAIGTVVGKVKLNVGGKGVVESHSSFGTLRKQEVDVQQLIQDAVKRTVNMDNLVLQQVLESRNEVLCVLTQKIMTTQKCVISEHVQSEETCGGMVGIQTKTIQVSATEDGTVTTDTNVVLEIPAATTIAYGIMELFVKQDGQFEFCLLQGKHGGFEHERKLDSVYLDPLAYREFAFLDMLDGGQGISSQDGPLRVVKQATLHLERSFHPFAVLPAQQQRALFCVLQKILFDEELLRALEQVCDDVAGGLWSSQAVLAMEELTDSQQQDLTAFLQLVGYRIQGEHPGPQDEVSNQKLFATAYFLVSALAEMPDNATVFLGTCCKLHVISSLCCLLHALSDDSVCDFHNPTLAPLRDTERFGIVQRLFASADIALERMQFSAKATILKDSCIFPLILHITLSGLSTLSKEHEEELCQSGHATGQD
Experiment: co-IP; endogenous proteins in lysates of WT THP-1 and CCD cells (NEDD4L KO and GSDMD KO cells as controls); Verhagen lysis buffer (150 mM NaCl, 20 mM Tris-HCl pH 7.5, 2 mM EDTA, 10% glycerol, 1% Triton-X); Protein A/G magnetic agarose beads with antibody to NEDD4-2, GSDMD or GSDME, 4 °C overnight; immunoblot

The chains behind the UniProt entries cited, without tags or fusion partners.
UniProt Q8CFI0: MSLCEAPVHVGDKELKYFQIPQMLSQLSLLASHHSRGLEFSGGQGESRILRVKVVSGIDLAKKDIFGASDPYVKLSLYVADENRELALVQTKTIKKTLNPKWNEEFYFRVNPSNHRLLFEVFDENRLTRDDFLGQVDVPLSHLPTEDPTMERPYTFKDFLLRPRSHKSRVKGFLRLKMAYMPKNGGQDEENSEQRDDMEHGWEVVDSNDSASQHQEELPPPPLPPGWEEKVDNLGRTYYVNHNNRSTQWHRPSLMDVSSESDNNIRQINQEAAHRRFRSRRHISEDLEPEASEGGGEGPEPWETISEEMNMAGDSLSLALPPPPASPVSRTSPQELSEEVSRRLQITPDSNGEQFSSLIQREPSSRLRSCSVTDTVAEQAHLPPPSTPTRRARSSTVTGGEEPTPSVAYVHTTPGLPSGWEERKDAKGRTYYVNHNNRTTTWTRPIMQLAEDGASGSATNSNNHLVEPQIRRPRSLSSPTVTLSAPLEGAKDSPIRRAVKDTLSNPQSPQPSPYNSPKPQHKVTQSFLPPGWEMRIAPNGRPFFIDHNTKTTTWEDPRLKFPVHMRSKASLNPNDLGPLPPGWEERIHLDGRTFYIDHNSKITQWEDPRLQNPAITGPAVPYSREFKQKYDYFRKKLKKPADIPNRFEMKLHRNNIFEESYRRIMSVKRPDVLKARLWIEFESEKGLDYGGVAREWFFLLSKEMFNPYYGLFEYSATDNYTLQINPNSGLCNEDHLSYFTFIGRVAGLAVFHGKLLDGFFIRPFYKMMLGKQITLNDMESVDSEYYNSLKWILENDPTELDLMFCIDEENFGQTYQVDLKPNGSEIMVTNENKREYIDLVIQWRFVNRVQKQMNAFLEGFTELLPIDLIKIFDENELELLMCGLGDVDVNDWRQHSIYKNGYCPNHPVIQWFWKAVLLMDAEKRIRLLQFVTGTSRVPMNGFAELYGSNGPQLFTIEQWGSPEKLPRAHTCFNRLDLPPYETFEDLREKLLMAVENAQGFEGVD

Q: “NEDD4-2 (endogenous, kidney cortical collecting duct CCD cells) (from UniProt Q8CFI0 1-1004) (enzyme)” was tested. Which binding did it give?
A: Its binding is “binds”.
